# PubChem BioAssay AID1347423 (Functional Genomics Laboratory (NCATS/FGL), 2020)
# Screen size: about 52,000 sequences; about 210 (0.4%) were called active.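 How the source made its calls: active means gene whose silencing raises cell survival under the drug, median off-target-corrected z-score across its silencing RNAs 2 or more; inactive means the rest.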 This is one part of the list.
# Assay: Resistance to Poly (ADP-Ribose) Polymerase inhibitor: Gene Identification via Genome-wide siRNA Screen
# Conditions: mouse BRCA2 R2336H ES cells, olaparib, CellTiter-Glo viability; hits give high values
# Excerpt: The role of Poly (ADP-Ribose) Polymerase (PARP) proteins in DNA repair has been elegantly utilized for the synthetic lethality-based treatment of BRCA-deficient tumors by PARP inhibitors. PARP inhibitors are now being used for treatment of BRCA-deficient breast and ovarian cancers. […] While several mechanisms of drug resistance have been identified, majority of these tumors develop drug resistance due to unknown causes. To identified novel regulators of chemo-resistance in BRCA2-mutated cells, we performed a genome wide siRNA library screen. We have found ES cells expressing a hypomorphic allele of BRCA2 to be hypersensitive to PAPP inhibitors (such as olaparib). We used ES cells expressing a mutant allele of BRCA2 that has a single amino acid substitution at position 2336 (arginine to histidine, R2336H). The screen was conducted using an Ambion (Thermo) Silencer Mouse Genome siRNA collection. The library targets 17,575 mouse genes with 3 siRNAs per gene. TET2 (E130014J05Rik) was identified as a top candidate.
# Transfections were performed in 384 well plates (Corning 3707). Plates were coated with 0.1% gelatin in H2O overnight at ambient temperature. Gelatin solution was aspirated (BioTek EL406) and siRNAs were printed using a Bravo VPrep liquid handler integrated within a BioCel automation platform (Agilent). Cell viability was measured using CellTiter Glo (Promega). For transfections, […] of serum free media containing Lipofectamine RNAiMax […] was added to wells containing siRNA (0.8pmol). Lipid and siRNA were allowed to complex for 45 min at ambient temperature before addition of 1000 cells in DMEM, 30% FBS to yield final transfection mixtures containing 20 nM siRNA in DMEM, 15% FBS. PARPi (olaparib, AZD2281) was added 48 h post-transfection (500 nM) and viability (CellTiter Glo, Promega) was assayed 72 h later on a PerkinElmer Envision 2104 Multilabel plate reader. Ambion Silencer Select Negative Control #2 was incorporated on all screening plates (16 wells) and the median negative control value on each plate was used for normalization. An siRNA targeting Trp53 was used as a positive control. This control yielded a median protective effect of ~1.9 fold versus negative control throughout the screen. The median absolute deviation (MAD) based z-score was calculated for each siRNA. Genes were then ranked by taking the median value for all siRNAs tested against a given gene. Scores were also adjusted for seed-based off-target effects to help deprioritize likely false positives.
row,Sequence,z-score
1,GCAGAUAAGAGUUCAAAUCTT against Oxa1l,inactive: 0.274
2,CGUGGUUCUUCGAGUAGAUTT against Sfrs5,inactive: -0.907
3,GUUUGAGACGGAGCAGAGCTT against Krt1-14,inactive: 0.467
4,GGAGAAGGAUGAAGACGGATT against Map1lc3a,inactive: -0.115
5,GGUUCUUUUGAGCUUUAUGTT against 1810007P19Rik,inactive: 0.384
6,AUAUAGACCUCGUUACGUATT against 6330571D19Rik,inactive: -0.727
7,GGAUUUAGCCAAAGAAAAGTT against Tbc1d8,inactive: 0.237
8,GGAGAAAGCACUCUAUCUCTT against Abcc10,inactive: 0.385
9,GGACUUUGAGAAUGUGGAUTT against Xylt1,inactive: -0.792
10,CGAUUUCACAAAAACAUGATT against 1110059P08Rik,inactive: 0.959
11,GCAACAGUGAAAUAGCACATT against Ccm1,inactive: 0.0695
12,GCCUACAGAGUGAUCAACATT against Fxyd5,inactive: -0.216
13,GCCGGACUUCCCAUCUGUUTT against Srebf1,inactive: -0.523
14,GGAUUGUAGUCGUUUCUUCTT against Rdh14,inactive: -0.511
15,GCAUCCUGAGCAGUGAUAUTT against Taar7b,inactive: -0.718
16,GGCCUAUCUGACCUACACCTT against Wnt8a,inactive: 1.32
17,GGAAGUUUAGAGCAUGCCATT against 2410001H17Rik,inactive: -0.114
18,CCACCGGAUCGAAGACAGUTT against 5730590C14Rik,inactive: 1.04
19,GGCAGAUUCCAGGCUUCACTT against Olfr513,inactive: -0.0146
20,CCCGCCAGAUGAUGCAUAATT against Unc5cl,inactive: -0.383
21,GGCCUCCUGAUUUGAUUGUTT against 2300002G24Rik,inactive: 0.76
22,CCUUUCCUACUCUGUACCCTT against Abcg1,inactive: -0.697
23,CGAAUAGUUCCAGAAGACGTT against F730031O20Rik,inactive: -0.427
24,GGUAGCUGACAAAGAGUAATT against Sp5,inactive: -0.51
25,GGAUAAAACUGGUUACUCUTT against Gpr110,inactive: 0.32
26,CCUUUCAAUUGGCUCUGAATT against Sumo1,inactive: -0.155

# Part of the list above in another layout:
row | Sequence | z-score
13 | GCCGGACUUCCCAUCUGUUTT against Srebf1 | inactive: -0.523
16 | GGCCUAUCUGACCUACACCTT against Wnt8a | inactive: 1.32
19 | GGCAGAUUCCAGGCUUCACTT against Olfr513 | inactive: -0.0146

# Next entries follow.

row,Sequence,z-score
1,GCCAAGGACUCAGUGAAUGTT against Iqsec2,inactive: -0.88
2,CCCUAAUUCAUGGACCUUGTT against Kremen2,inactive: -2.17
3,GAUGUUCUGCAUCUACUUUTT against Olfr545,inactive: -0.106
4,CCCAUCUGUUUGAGUGUAUTT against Ms4a1,inactive: -1.62
5,GGUGAACCUCCAGAACAAUTT against Bcap31,inactive: 0.727
6,GGAAAUAAACCCUUGAUAUTT against Rhof,inactive: -1.93
7,GCCCUCGAGAAGCUCUCAUTT against Zfp202,inactive: -1.28
8,GGUCACAGACCAAGCUUAUTT against Mmp15,inactive: 1.15
9,GGAGUUCAGGAAAAUUCUUTT against Csdufd1,inactive: 1.97
10,GGACAUAUAGCUGAUUUCUTT against Ctdsp2,inactive: 1.04
11,GCUGGAAUACGUUGAUAUATT against Kcnab3,inactive: -0.643
12,GGAUAAGACCAUCAGAUUATT against Wdr31,inactive: 0.514
13,GGACUUAUUGCUUCAGUCUTT against Resp18,inactive: -0.266
14,GGCAGCUCCUUCACAUUUUTT against Net1,inactive: -0.0439
15,GGGUCACUACAUUUGACACTT against Sh3glb2,inactive: -0.464
16,GGGUUAGCCAGAGCUCUAATT against B230342M21Rik,inactive: -2.1
17,GGUCAAUGUGUUUAUGUGATT against Nxt2,inactive: 1.09
18,GGUUUUCCAGAGAAACCACTT against Rhox7,inactive: -0.0887
19,CGAAGUGAGGCAAAUCGAATT against Stx18,inactive: 0.185
20,GGCGAGAUUAAAAAAUGGUTT against Zhx1,inactive: 0.239
21,GCAAAUUACCACAUUGUCUTT against Adam12,inactive: 0.869
22,GGACAUGAAUGCAUUUUUATT against Klhl8,inactive: 0.251
23,GCUUGCCUGACCUGAAACATT against 9430083G14Rik,inactive: -2.66
24,GGUUCAGUUGAUGCUUUAUTT against Lrba,inactive: 0.759
25,GGAGUAUGGGAUAAUUCUATT against C630025C03,inactive: -0.812
26,GGAUCAGGAGGCCAUCACATT against 4933421I07Rik,inactive: -2.59
